Here are results for 1 molecule from patent US20220241416A1, “METHODS FOR THE IDENTIFICATION OF SARM1 NADASE ACTIVITY INHIBITORS AND USES THEREOF” (Bar Ilan University, priority 2021, published 2022).

Results are given in words; binding and its absence hold for the method and conditions named. Some results given as binding are weak or reduced against the parent protein; the word gives no strength.

This assay deals with isolated SAM1-2 domains of hSARM1 (human) (UniProt Q6SZW1). As to the kind of experiment: cryo-EM 3D reconstruction with C8 symmetry (self-assembly).

B1: isolated SAM1-2 domains of hSARM1 (protein, human, UniProt Q6SZW1 387-548, looked up)
chain: SALAKRALRLLGEEVPRPILPSVPSWKEAEVQTWLQQIGFSKYCESFREQQVDGDLLLRLTEEELQTDLGMKSGITRKRFFRELTELKTFANYSTCDRSNLADWLGSLDPRFRQYTYGLVSCGLDRSLLHRVSEQQLLEDCGIHLGVHRARILTAAREMLHS
As for B1, the binding result was “binds”.
